This test has as its target TPC2 (exogenous, in TPC2-expressing HEK293 cells) (human) (UniProt Q8NHX9). Description: co-IP; co-immunoprecipitation of co-expressed TPC2 and Lsm12 WT or truncation mutants (Fig. 4e); WT also in the absence or presence of 100 µM NAADP (Fig. 4f).

Sequences of proteins named here, by UniProt entry; tags and fusion partners are left off.
UniProt Q8NHX9: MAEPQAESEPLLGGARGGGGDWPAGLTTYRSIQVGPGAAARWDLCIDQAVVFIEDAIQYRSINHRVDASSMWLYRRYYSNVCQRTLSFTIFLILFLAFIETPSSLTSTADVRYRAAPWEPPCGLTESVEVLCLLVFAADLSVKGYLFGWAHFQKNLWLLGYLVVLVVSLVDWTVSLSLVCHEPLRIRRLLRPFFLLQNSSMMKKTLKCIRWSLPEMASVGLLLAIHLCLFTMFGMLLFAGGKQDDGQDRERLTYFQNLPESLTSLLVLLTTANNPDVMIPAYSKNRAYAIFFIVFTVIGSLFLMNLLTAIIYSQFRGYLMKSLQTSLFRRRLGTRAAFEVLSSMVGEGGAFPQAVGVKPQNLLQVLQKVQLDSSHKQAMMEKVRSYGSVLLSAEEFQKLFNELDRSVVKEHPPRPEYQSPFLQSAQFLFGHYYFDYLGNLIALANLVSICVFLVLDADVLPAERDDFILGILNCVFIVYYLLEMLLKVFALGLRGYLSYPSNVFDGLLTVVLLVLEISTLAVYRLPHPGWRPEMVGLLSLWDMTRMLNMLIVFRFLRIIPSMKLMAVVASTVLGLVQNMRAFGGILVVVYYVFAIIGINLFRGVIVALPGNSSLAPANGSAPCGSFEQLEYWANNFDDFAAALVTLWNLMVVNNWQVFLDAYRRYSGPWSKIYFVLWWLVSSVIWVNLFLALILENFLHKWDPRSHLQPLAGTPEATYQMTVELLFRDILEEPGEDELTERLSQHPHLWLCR

From paper PMC8346516, “Lsm12 is an NAADP receptor and a two-pore channel regulatory protein required for calcium mobilization from acidic organelles” (Nature Communications, 2021) come the findings set out here.

Results are given in words; binding and its absence hold for the method and conditions named. In cells and extracts the contact can be indirect. Some results given as binding are weak or reduced against the parent protein; the word gives no strength.

B1: Lsm12 ΔAD (domain or fragment, UniProt Q3MHD2 1-84)
chain: MAAPPGEYFSVGSQVSCRTCQEQRLQGEVVAFDYQSKMLALKCPSSSGKPNHADILLINLQYVSEVEIINDRTETPPPLASLNV
For B1, the binding entry is listed as “binds”.

B2: Lsm12 Δlinker (protein, UniProt Q3MHD2)
chain: MAAPPGEYFSVGSQVSCRTCQEQRLQGEVVAFDYQSKMLALKCPSSSGKPNHADILLINLQYVSEVESKLASKARTEKEEKLSQAYAISAGVSLEGQQLFQTIHKTIKDCKWQEKNIVVMEEVVITPPYQVENCKGKEGSALSHVRKIVEKHFRDVESQKILQRSQAQQPQKEAALSS
Turning to B2, the binding result is “binds”.

B3: Lsm12 ΔLsm (protein, UniProt Q3MHD2)
chain: MAAIINDRTETPPPLASLNVSKLASKARTEKEEKLSQAYAISAGVSLEGQQLFQTIHKTIKDCKWQEKNIVVMEEVVITPPYQVENCKGKEGSALSHVRKIVEKHFRDVESQKILQRSQAQQPQKEAALSS
Regarding B3, the binding result was “no binding”.
